Over roughly 33,000 sequences, “E-score (-0.5 to 0.5)” has its median near -8e-05; the highest 2% begin near 0.23. Some of the results follow.
The sequences below were run against T1, Nrg2 (UniProt P38082) (assay: PBM E-score (8-mer binding enrichment) (E-score (-0.5 to 0.5)); higher = stronger / more preferred TF binding). Conditions: protein concentration: 100 nM; construct: GST-full length.
T1 sequence: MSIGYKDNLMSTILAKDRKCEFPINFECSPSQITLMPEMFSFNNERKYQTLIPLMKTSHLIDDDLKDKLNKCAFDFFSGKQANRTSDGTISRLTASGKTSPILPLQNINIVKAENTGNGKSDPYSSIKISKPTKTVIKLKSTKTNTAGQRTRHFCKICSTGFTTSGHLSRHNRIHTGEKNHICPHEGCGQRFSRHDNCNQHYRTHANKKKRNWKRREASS
Method in brief: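 Universal all-10-mer Agilent arrays, fresh or stripped once, were converted to double-stranded form by primer extension. GST-tagged yeast transcription factors from PURExpress in vitro transcription/translation, full-length or DNA-binding domain only, were applied at about 100-200 nM and detected with fluorescent anti-GST. After masliner normalisation, the Universal PBM Analysis Suite scored each ungapped eight-base word together with its reverse complement by E-score.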
In the case of TCATGAAA, the “PBM E-score” value is reported as 0.0629.
With AGTTTATG the “PBM E-score” value was -0.144.
For ATGTGTCG, the “PBM E-score” value was 0.0908.
With CAGTTCGG the “PBM E-score” value was -0.0372.
In the case of CTAAGATA, the “PBM E-score” value is reported as 0.0976.
CACCTCTC was tested, and the “PBM E-score” value was -0.0403.
For CGTGAGCC, the “PBM E-score” value was -0.214.
ATCAATTA was tested, and the “PBM E-score” value was 0.271.
In the case of ACTTTCCG, the “PBM E-score” value is reported as 0.0971.
AGCAATAC was tested, and the “PBM E-score” value was 0.12.
For AGGTGGCG, the “PBM E-score” value was -0.0682.
With ACCTTGGG the “PBM E-score” value was 0.0344.
For TGTGTGAA, the “PBM E-score” value was 0.0142.
In the case of TCTACAAA, the “PBM E-score” value is reported as 0.107.
In the case of ACTTGAGA, the “PBM E-score” value is reported as 0.0111.
For AATGTAGT, the “PBM E-score” value was 0.094.
For AATCTTAT, the “PBM E-score” value was -0.0572.
AACATGTA was tested, and the “PBM E-score” value was 0.0587.
ATGCCCTG was tested, and the “PBM E-score” value was 0.11.
CAAGCTTG was tested, and the “PBM E-score” value was -0.0731.
With GATGCGTA the “PBM E-score” value was -0.102.
For CAGTTCTC, the “PBM E-score” value was 0.0397.
AGAGGAAT was tested, and the “PBM E-score” value was -0.0425.
With ACATAATC the “PBM E-score” value was 0.193.
In the case of AGACTTTC, the “PBM E-score” value is reported as 0.0343.
In the case of CTATCTCA, the “PBM E-score” value is reported as 0.0251.
For AAACCCCC, the “PBM E-score” value was -0.322.
ATGAGCCG was tested, and the “PBM E-score” value was -0.138.
For GAGTTCCC, the “PBM E-score” value was 0.0556.
With AGAGTATA the “PBM E-score” value was 0.0181.
ACCTTCTG was tested, and the “PBM E-score” value was 0.104.
With ACAGGTCA the “PBM E-score” value was -0.163.
In the case of CTCGGGTA, the “PBM E-score” value is reported as -0.0916.
In the case of AAGACCTA, the “PBM E-score” value is reported as -0.126.
For ACAGCGCC, the “PBM E-score” value was 0.00214.
AATACGGG was tested, and the “PBM E-score” value was -0.181.
CGCCCGTC was tested, and the “PBM E-score” value was 0.0793.
In the case of GTCGGAAA, the “PBM E-score” value is reported as 0.234.
GTGTACTA was tested, and the “PBM E-score” value was 0.0211.
For GTAAGGTA, the “PBM E-score” value was 0.039.
In the case of GCGCCGCC, the “PBM E-score” value is reported as 0.17.
For ATTCTACG, the “PBM E-score” value was 0.11.
For GGGGCTCA, the “PBM E-score” value was -0.2.
ACCGACAA was tested, and the “PBM E-score” value was 0.0162.
With AAAAAGCG the “PBM E-score” value was 0.0651.
GCTGTCGA was tested, and the “PBM E-score” value was -0.0651.
AAAGAAAT was tested, and the “PBM E-score” value was 0.223.
In the case of CCCTATCC, the “PBM E-score” value is reported as 0.0356.
In the case of CACTTACA, the “PBM E-score” value is reported as 0.0197.
For CATTTGAG, the “PBM E-score” value was 0.155.
In the case of CACTGCTG, the “PBM E-score” value is reported as -0.127.
For ATTCCCCG, the “PBM E-score” value was -0.00252.
For AATTTCAT, the “PBM E-score” value was 0.0846.
CGGGACCA was tested, and the “PBM E-score” value was -0.173.
In the case of AAGTCCCA, the “PBM E-score” value is reported as -0.0858.
With AATATTCA the “PBM E-score” value was 0.144.
CAACAGTA was tested, and the “PBM E-score” value was -0.0361.
In the case of CTGAGTGA, the “PBM E-score” value is reported as 0.127.
AGTAGATC was tested, and the “PBM E-score” value was -0.0113.
In the case of AATATAGG, the “PBM E-score” value is reported as 0.229.
For CGTGGGAC, the “PBM E-score” value was 0.0306.
CTGGCTCA was tested, and the “PBM E-score” value was 0.0248.
TCGAACAA was tested, and the “PBM E-score” value was 0.259.
GAAGGAGC was tested, and the “PBM E-score” value was -0.377.
In the case of ACATCTGG, the “PBM E-score” value is reported as -0.0515.
In the case of CCAGGGCG, the “PBM E-score” value is reported as 0.00949.
In the case of ATGCCTTG, the “PBM E-score” value is reported as -0.114.
With GAATTGAC the “PBM E-score” value was 0.163.
For CTCCACGA, the “PBM E-score” value was -0.122.
In the case of AACAAGCC, the “PBM E-score” value is reported as -0.251.
With AAAGAGCG the “PBM E-score” value was 0.0513.
In the case of GCCCCACA, the “PBM E-score” value is reported as 0.0133.
In the case of GCGGGTCC, the “PBM E-score” value is reported as -0.0518.
With CGTCCTTA the “PBM E-score” value was -0.0686.
GCTATTCC was tested, and the “PBM E-score” value was -0.0857.
For ACATCAAG, the “PBM E-score” value was 0.0863.
CTGATCCA was tested, and the “PBM E-score” value was 0.156.
ATCTATAG was tested, and the “PBM E-score” value was -0.0147.
For AACTCCGG, the “PBM E-score” value was 0.123.
For GAGTGCTA, the “PBM E-score” value was 0.0892.
In the case of CGCGCTCC, the “PBM E-score” value is reported as 0.16.
In the case of AGTTTGTC, the “PBM E-score” value is reported as 0.0265.
AAATCAAA was tested, and the “PBM E-score” value was 0.0914.
In the case of TGAACCAA, the “PBM E-score” value is reported as 0.177.
In the case of ACGGTATG, the “PBM E-score” value is reported as -0.0109.
In the case of AGTTACCG, the “PBM E-score” value is reported as 0.188.
With ATCGCTAC the “PBM E-score” value was -0.0723.
CATATTCG was tested, and the “PBM E-score” value was 0.0131.
In the case of GCGTATAA, the “PBM E-score” value is reported as 0.0692.
For GTAGACAA, the “PBM E-score” value was 0.0942.
GGACTTGA was tested, and the “PBM E-score” value was -0.122.
With ACGGGCCC the “PBM E-score” value was -0.121.
CGGACGAA was tested, and the “PBM E-score” value was 0.233.
ATTAAACC was tested, and the “PBM E-score” value was 0.199.
For ATTCTTGG, the “PBM E-score” value was 0.12.
In the case of ATCAATGA, the “PBM E-score” value is reported as 0.0818.
AGACCCCT was tested, and the “PBM E-score” value was 0.158.
GGCCCACC was tested, and the “PBM E-score” value was -0.072.
With ACGTACTA the “PBM E-score” value was 0.0769.
CGATTCTC was tested, and the “PBM E-score” value was 0.0381.
In the case of GAGGGGAA, the “PBM E-score” value is reported as -0.0475.
For CCTACTCC, the “PBM E-score” value was -0.142.
GACCCGCA was tested, and the “PBM E-score” value was -0.0796.
GCGCTCCA was tested, and the “PBM E-score” value was -0.0775.
With ATCCTCCG the “PBM E-score” value was -0.144.
In the case of CGACACTC, the “PBM E-score” value is reported as -0.00057.
With GACAATAA the “PBM E-score” value was 0.218.
For CTAGTAAC, the “PBM E-score” value was 0.00138.
In the case of CAGCGCGG, the “PBM E-score” value is reported as 0.0844.
In the case of ATCGTCGC, the “PBM E-score” value is reported as 0.158.
With CGACGGAG the “PBM E-score” value was -0.0561.
For ATTGATGG, the “PBM E-score” value was 0.12.
CACCGGTG was tested, and the “PBM E-score” value was -0.257.
In the case of CCGTTCAC, the “PBM E-score” value is reported as -0.146.
In the case of GAAGGTCA, the “PBM E-score” value is reported as -0.204.
For CCTACGAA, the “PBM E-score” value was -0.00141.
With ACCTCCTC the “PBM E-score” value was -0.259.
CCGAAAGA was tested, and the “PBM E-score” value was -0.0556.
CTTGTGTA was tested, and the “PBM E-score” value was 0.0975.
For CCCTTCTC, the “PBM E-score” value was -0.205.
GAATCTCC was tested, and the “PBM E-score” value was -0.0275.
CGCATCGC was tested, and the “PBM E-score” value was -0.2.
ATATAGAT was tested, and the “PBM E-score” value was 0.0507.
With GTCGTGTA the “PBM E-score” value was 0.0206.
For AACCCACG, the “PBM E-score” value was 0.067.
CACCCCAG was tested, and the “PBM E-score” value was 0.0184.
With AGGTTGGG the “PBM E-score” value was -0.086.
With AATCCACA the “PBM E-score” value was -0.00959.
For CCGTCAAC, the “PBM E-score” value was -0.197.
In the case of AGTATGAC, the “PBM E-score” value is reported as 0.0675.
In the case of AATATCCA, the “PBM E-score” value is reported as 0.112.
With TCACCCCA the “PBM E-score” value was 0.113.
For GCGATGAC, the “PBM E-score” value was -0.0214.
GAGTGGAC was tested, and the “PBM E-score” value was 0.00399.
With CCGTGATA the “PBM E-score” value was -0.147.
For AAAATGTG, the “PBM E-score” value was 0.141.
For ACCCTCAC, the “PBM E-score” value was -0.121.
With AAACCAGG the “PBM E-score” value was 0.071.
ATAGCTGA was tested, and the “PBM E-score” value was 0.0222.
In the case of GATTTCCA, the “PBM E-score” value is reported as 0.0729.
For AAGCTAGA, the “PBM E-score” value was -0.029.
With CGCACCTC the “PBM E-score” value was -0.202.
For GGAAGATA, the “PBM E-score” value was 0.0956.
In the case of CAGTTGCA, the “PBM E-score” value is reported as 0.0592.
With GTAGCAAA the “PBM E-score” value was 0.0619.
CATGTTAC was tested, and the “PBM E-score” value was 0.137.
With CCGGCCGA the “PBM E-score” value was -0.00544.
With CCATAGCC the “PBM E-score” value was -0.175.
For CAGCCCCG, the “PBM E-score” value was -0.0989.
TAGCGTCA was tested, and the “PBM E-score” value was -0.158.
In the case of ATCGGCAT, the “PBM E-score” value is reported as 0.124.
CACTCTTC was tested, and the “PBM E-score” value was -0.0562.
In the case of GTTAATGA, the “PBM E-score” value is reported as 0.0108.
In the case of CACGCAGG, the “PBM E-score” value is reported as 0.0602.
In the case of AAGACATC, the “PBM E-score” value is reported as -0.123.
CGACAGCC was tested, and the “PBM E-score” value was 0.026.
In the case of GGTCCATA, the “PBM E-score” value is reported as -0.0767.
ATCCTGGA was tested, and the “PBM E-score” value was -0.0444.
In the case of ATGATTTC, the “PBM E-score” value is reported as 0.164.
For GTGAAACA, the “PBM E-score” value was -0.0388.
In the case of CCCCCAGG, the “PBM E-score” value is reported as -0.262.
With GTAGCCTA the “PBM E-score” value was -0.307.
For CGACATTA, the “PBM E-score” value was 0.0834.
With CGTAAAAC the “PBM E-score” value was -0.0855.
In the case of GCATTGAA, the “PBM E-score” value is reported as 0.0708.
For GTAGCGAC, the “PBM E-score” value was -0.0189.
For AGGTAGTC, the “PBM E-score” value was -0.159.
With GGCCTAGA the “PBM E-score” value was -0.0429.
With AGCCAGAC the “PBM E-score” value was -0.0854.
ACTCTGAC was tested, and the “PBM E-score” value was 0.0113.
With GACAGGAC the “PBM E-score” value was 0.0451.
ACTCATCG was tested, and the “PBM E-score” value was -0.0915.

From the supplement of paper PMC3334620
